The values below are quoted from earlier work in paper PMC10003010, “A Unique In Vitro Assay to Investigate ABCB4 Transport Function” (International Journal of Molecular Sciences, 2023).

For orientation: IC50 means the midpoint of a concentration-inhibition curve.

Where two headings read alike, the source gives them in different places.

Data set [1] relates to ABCB4. Particulars: human primary hepatocyte assay; read-out: In Vitro Literature Data (IC50); cited from earlier work.
Data set [2] has as its system ABCB4. Conditions: read-out: In Vitro Literature Data (IC50); cited from earlier work.

On to `CCCCc1oc2ccccc2c1C(=O)c1cc(I)c(OCCN(CC)CC)c(I)c1` [amiodarone], for which the IC50 in data set [1] was over 300 µM; in data set [2] it was over 100 µM.
